## Results of single-concentration screens

Sequences of proteins named here, by UniProt entry; tags and fusion partners are left off. Residues count along the entry.
UniProt I6X8D2, whole entry: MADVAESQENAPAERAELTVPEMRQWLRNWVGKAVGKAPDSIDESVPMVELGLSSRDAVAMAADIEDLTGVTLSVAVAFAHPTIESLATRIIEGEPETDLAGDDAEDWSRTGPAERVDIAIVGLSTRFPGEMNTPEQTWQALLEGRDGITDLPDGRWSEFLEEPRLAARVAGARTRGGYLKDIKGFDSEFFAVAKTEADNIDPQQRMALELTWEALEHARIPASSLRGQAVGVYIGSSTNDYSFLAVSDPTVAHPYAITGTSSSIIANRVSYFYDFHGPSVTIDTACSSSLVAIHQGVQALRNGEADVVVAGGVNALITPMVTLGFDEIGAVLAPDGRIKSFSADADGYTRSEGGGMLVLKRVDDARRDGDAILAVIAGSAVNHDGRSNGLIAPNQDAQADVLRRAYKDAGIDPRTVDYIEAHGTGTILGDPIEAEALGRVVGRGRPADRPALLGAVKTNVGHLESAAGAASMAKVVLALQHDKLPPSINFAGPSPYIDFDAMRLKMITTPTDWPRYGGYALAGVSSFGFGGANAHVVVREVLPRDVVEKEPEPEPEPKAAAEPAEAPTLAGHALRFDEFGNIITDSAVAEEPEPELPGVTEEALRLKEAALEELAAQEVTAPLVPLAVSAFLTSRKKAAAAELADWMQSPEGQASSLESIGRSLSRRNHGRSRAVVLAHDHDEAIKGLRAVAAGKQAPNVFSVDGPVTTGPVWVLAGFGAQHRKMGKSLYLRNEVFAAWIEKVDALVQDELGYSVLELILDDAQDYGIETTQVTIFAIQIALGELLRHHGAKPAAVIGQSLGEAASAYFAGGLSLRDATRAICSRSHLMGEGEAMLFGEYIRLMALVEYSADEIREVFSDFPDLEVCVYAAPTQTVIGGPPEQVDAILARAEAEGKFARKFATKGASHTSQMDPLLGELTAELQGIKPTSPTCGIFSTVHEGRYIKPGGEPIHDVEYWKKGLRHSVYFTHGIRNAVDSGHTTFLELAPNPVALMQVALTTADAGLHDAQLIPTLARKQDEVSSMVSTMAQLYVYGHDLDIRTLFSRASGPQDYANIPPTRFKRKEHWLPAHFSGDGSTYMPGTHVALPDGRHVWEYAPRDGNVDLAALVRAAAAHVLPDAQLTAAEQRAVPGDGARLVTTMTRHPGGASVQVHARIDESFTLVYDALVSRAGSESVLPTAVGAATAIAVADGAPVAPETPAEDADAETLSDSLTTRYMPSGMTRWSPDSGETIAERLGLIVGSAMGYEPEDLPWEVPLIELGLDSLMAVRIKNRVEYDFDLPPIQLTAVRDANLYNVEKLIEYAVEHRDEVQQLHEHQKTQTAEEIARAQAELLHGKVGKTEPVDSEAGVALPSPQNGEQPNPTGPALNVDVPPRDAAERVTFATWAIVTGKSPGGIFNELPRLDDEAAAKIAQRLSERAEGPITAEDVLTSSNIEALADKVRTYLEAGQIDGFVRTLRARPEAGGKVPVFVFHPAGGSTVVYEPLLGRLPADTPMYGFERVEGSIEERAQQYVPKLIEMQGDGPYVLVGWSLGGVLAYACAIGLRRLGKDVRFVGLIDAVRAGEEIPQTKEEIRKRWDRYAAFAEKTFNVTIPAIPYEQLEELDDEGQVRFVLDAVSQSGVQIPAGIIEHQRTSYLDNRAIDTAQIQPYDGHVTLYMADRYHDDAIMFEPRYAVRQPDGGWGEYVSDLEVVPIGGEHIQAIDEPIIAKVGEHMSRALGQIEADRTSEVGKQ
UniProt P9WNZ1, whole entry: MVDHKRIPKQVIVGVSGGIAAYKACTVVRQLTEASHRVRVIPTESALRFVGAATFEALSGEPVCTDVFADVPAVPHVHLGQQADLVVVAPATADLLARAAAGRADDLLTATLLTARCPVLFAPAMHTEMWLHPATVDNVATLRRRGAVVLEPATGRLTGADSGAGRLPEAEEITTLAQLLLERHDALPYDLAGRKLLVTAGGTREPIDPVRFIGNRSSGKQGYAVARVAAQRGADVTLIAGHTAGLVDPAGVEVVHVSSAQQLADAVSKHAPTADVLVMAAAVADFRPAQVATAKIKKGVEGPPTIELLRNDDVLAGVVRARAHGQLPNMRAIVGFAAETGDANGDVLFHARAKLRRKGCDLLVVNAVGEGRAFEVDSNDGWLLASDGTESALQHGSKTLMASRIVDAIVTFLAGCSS
UniProt Q8IDJ8, 1-583: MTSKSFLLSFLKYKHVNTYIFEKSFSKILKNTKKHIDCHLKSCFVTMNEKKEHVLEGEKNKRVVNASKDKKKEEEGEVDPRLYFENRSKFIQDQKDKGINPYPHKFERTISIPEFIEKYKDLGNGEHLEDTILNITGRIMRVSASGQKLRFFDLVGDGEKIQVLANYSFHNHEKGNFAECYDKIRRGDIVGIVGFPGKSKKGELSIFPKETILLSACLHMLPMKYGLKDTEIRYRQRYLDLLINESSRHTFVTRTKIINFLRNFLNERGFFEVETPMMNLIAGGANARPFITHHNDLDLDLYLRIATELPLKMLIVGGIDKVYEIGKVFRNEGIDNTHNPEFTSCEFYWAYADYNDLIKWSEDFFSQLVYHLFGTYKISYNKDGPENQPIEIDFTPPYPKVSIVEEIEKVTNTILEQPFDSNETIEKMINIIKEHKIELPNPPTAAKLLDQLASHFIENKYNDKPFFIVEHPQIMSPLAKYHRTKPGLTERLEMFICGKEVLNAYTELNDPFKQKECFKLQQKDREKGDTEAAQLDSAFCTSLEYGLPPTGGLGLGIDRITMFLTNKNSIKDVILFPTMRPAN
UniProt Q4DA54, 1-478: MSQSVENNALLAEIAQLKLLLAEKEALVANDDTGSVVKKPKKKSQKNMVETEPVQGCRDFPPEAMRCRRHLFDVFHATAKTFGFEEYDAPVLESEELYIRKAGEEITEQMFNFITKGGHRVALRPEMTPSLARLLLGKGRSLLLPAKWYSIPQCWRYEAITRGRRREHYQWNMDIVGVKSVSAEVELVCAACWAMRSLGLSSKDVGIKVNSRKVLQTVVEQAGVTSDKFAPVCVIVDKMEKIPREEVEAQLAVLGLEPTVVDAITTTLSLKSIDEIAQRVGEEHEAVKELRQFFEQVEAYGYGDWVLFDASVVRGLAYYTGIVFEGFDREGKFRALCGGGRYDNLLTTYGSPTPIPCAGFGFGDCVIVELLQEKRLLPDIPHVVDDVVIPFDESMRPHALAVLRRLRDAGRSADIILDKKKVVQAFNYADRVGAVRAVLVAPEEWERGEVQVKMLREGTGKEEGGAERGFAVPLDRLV

A: 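Enzyme assay of the thioesterase domain of polyketide synthase 13; the read-out is not stated. Target: Polyketide synthase Pks13, Mycobacterium tuberculosis (UniProt I6X8D2). Concentration: 30 µM. The record gives no direction; the compounds picked for IC50 retests had high values, so higher reads as stronger inhibition. About 67,000 compounds were tested under these conditions; 0.46% (about 300) showed 50% or more at least once.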
B: 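Enzyme assay of CoaBC with a phosphate dye (Biomol Green) read at 650 nm. Target: Coenzyme A biosynthesis protein CoaBC, Mycobacterium tuberculosis (UniProt P9WNZ1). Compounds at 30 µM. Direction is inferred from only a few compounds that gave an IC50; most scored high, so higher reads as stronger inhibition. Most strong results did not repeat in a second test. About 67,000 compounds were tested under these conditions; 0.06% (about 40) showed 50% or more at least once.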
C: 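Enzyme assay of the cytosolic lysyl-tRNA synthetase in 384-well plates, read by luminescence. Target: Lysine-tRNA ligase, Plasmodium falciparum 3D7 (UniProt Q8IDJ8). Compounds at 30 µM. Direction is inferred from only a few compounds that gave an IC50; most scored high, so higher reads as stronger inhibition. Of about 69,000 compounds tested this way, about 49 (0.071%) reached 50% or more in at least one test.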
D: 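Enzyme assay of histidyl-tRNA synthetase; the read-out is not stated. Target: Histidine-tRNA ligase, Trypanosoma cruzi CL Brener (UniProt Q4DA54). Compounds at 30 µM. The record gives no direction; compounds that gave an IC50 in retests scored well above the rest, so higher reads as stronger inhibition. Size under these conditions: about 69,000 compounds, about 31 of them at 50% or above in at least one test.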

Values are the deposited “Percent Effect”, in %.
How 0% and 100% were set is not recorded. Most values in the screen are low, and negative values occur.
Compounds were drawn at random from those tested, without regard to their results.

{"compound": "COc1cccc(CC(=O)N2CC[C@@H]3[C@H](CC2)N(C)CCS3(=O)=O)c1", "A": 9.735, "B": -0.8485, "C": 3.228, "D": 2.793}
{"compound": "O=C1C(CS(=O)(=O)Nc2ccc(Cl)cc2)=NC(=O)n2cccc21", "A": -19.59, "B": 0.5051, "C": 0.1212, "D": -2.924}
{"compound": "COc1ccc(OC)c(C(C)NS(=O)(=O)c2cn(C)nc2C)c1", "stereo": "stereo not shown", "A": -3.289, "B": 0.2237, "C": 2.424, "D": 2.062}
{"compound": "FC1(F)CCN(Cc2ccccn2)CC12CCN(c1ncccn1)C2", "stereo": "stereo not shown", "A": -2.884, "B": 4.198, "C": 3.92, "D": 10.58}
{"compound": "O=C(N[C@H]1CN2CCC1CC2)c1cc(Cn2cnc3ccccc32)[nH]n1", "A": -8.806, "B": 5.767, "C": 7.437, "D": 9.877}
{"compound": "O=C(N1CCOCC1)N1CCN(CC(O)c2ccc(F)cc2)CC1", "stereo": "stereo not shown", "A": -12.54, "B": 3.316, "C": 1.028, "D": 4.094}
{"compound": "OCC1(O)CCN(c2ncccc2C(F)(F)F)CC1", "A": -19.75, "B": 9.535, "C": 4.34, "D": 7.65}
{"compound": "CN1C(=O)C2(CCN(CCO)C2)c2ccccc21", "stereo": "stereo not shown", "A": -22.8, "B": 11.31, "C": 7.812, "D": 6.077}
{"compound": "Fc1ccccc1CC1CCN(Cc2ccccn2)CC1", "A": -10.1, "B": 11.36, "C": 3.525, "D": 5.946}
{"compound": "CS(=O)(=O)c1ccc(OCCNCc2ccc(F)cc2F)cc1", "A": -13.93, "B": 0.2151, "C": -0.08004, "D": 4.132}
{"compound": "Cc1nc(C)n(CCNC(=O)C(C)n2ccnc2C(C)C)n1", "stereo": "stereo not shown", "B": 10.07, "C": 2.175, "D": 8.287}
{"compound": "CCN1CCC(NC(=O)CN2CCc3c(ncn3C3CC3)C2)CC1", "A": -24.73, "B": -3.485, "C": 0.6297, "D": 5.413}
{"compound": "O=c1[nH]c2ccc(S(=O)(=O)N(CCO)Cc3ccncc3)cc2[nH]1", "A": 38.28, "B": -12.35, "C": 0.5657, "D": 3.955}
{"compound": "Cc1cnn(CC2CCCN2C(=O)c2sccc2C#N)c1", "stereo": "stereo not shown", "A": -18.85, "B": 1.282, "C": 2.212, "D": 3.784}
{"compound": "COC(=O)CCNC(=O)c1cc(-c2ccc(OC)cc2)nn1C", "A": -15.57, "B": -9.635, "C": 0.1057, "D": 10.88}
{"compound": "COCCOc1ccc(NC(=O)N2CCCC2c2ccsc2)cn1", "stereo": "stereo not shown", "A": -19.68, "B": 7.127, "C": 18.25, "D": -5.042}
{"compound": "Cc1noc(C)c1CN(C)C(=O)CCOc1ccc(Cl)cc1", "A": -28.38, "B": 4.202, "C": 3.092, "D": 6.667}
{"compound": "Cc1cccc(OCCNC(=O)Cn2ccc(C)cc2=O)c1", "A": 8.296, "B": 2.184, "C": -1.3, "D": 7.921}
{"compound": "COCCNC(=O)[C@@H]1CCO[C@@H]2CCN(c3ccc(C)nn3)C[C@@H]21", "A": -17.71, "B": 1.777, "C": -4.505, "D": 4.926}
{"compound": "CCC[C@@H]1CN(Cc2cc3c(cc2OC)OCCO3)C[C@H]1C(=O)O", "A": -1.712, "B": 4.959, "C": 7.242, "D": 4.046}
{"compound": "Cc1nc(C2CCCN2Cc2cc(Cl)c3c(c2)OCO3)no1", "stereo": "stereo not shown", "A": -8.939, "B": 0.2481, "C": -0.1458, "D": 12.14}
{"compound": "CN(CC1CC1)c1ccc2ccc(C(=O)NC3CCCCC3)cn12", "A": -29.83, "B": 5.647, "C": 2.079, "D": 42.79}
{"compound": "CC(C(=O)NCc1cccc(N2CC=CC2)c1)n1cccn1", "stereo": "stereo not shown", "A": 14.44, "B": -4.255, "C": 0.5215, "D": 1.901}
{"compound": "COCCC1(CO)CCCN(C(=O)c2cccnc2OC)C1", "stereo": "stereo not shown", "A": -25.2, "B": -1.2, "C": 2.066, "D": 3.448}

Repeated from the top, 3 entries:

- COc1cccc(CC(=O)N2CC[C@@H]3[C@H](CC2)N(C)CCS3(=O)=O)c1 : A: 9.735%; B: -0.8485%; C: 3.228%; D: 2.793%
- O=C1C(CS(=O)(=O)Nc2ccc(Cl)cc2)=NC(=O)n2cccc21 : A: -19.59%; B: 0.5051%; C: 0.1212%; D: -2.924%
- COc1ccc(OC)c(C(C)NS(=O)(=O)c2cn(C)nc2C)c1 (stereo not shown) : A: -3.289%; B: 0.2237%; C: 2.424%; D: 2.062%

From ChEMBL document CHEMBL3988442, “University of Dundee, Small-Polar-MMV Screening Library” (2021).